In paper doi:10.1101/2024.08.07.606949:
These are yes or no findings as the source states them, for the method shown. In cells and extracts the contact can be indirect. Some results given as binding are weak or reduced against the parent protein; the word gives no strength.

Chains of the proteins cited; added tags and fusions are not shown. Lines headed by an entry give the natural chain unless they say otherwise; changes in a name come on top.
UniProt P54198: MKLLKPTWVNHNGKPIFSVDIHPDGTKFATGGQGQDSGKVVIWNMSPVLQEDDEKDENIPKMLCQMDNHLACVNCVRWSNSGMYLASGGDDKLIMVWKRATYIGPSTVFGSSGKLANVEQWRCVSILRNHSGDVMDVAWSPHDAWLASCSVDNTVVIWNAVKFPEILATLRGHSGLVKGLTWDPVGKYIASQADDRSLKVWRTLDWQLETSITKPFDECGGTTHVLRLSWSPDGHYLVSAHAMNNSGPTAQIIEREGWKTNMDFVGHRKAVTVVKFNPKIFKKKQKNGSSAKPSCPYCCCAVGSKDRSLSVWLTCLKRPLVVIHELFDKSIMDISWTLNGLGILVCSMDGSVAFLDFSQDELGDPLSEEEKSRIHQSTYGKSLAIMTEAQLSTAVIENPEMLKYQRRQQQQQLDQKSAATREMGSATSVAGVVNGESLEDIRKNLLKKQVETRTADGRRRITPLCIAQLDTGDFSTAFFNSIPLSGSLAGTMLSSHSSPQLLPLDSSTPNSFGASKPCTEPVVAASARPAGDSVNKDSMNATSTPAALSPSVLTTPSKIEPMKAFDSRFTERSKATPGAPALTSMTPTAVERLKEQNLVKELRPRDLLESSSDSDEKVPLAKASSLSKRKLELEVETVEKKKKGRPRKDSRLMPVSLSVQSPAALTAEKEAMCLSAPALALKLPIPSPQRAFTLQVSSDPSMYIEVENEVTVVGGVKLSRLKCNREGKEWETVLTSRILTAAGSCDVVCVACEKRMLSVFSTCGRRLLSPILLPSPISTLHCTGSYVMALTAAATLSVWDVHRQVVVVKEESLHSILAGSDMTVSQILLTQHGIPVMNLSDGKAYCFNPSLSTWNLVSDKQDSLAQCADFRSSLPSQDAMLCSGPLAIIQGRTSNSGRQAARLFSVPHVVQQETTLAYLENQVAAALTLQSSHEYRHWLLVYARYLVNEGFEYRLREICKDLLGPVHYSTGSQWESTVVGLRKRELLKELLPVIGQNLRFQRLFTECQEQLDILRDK
UniProt Q9NPG3: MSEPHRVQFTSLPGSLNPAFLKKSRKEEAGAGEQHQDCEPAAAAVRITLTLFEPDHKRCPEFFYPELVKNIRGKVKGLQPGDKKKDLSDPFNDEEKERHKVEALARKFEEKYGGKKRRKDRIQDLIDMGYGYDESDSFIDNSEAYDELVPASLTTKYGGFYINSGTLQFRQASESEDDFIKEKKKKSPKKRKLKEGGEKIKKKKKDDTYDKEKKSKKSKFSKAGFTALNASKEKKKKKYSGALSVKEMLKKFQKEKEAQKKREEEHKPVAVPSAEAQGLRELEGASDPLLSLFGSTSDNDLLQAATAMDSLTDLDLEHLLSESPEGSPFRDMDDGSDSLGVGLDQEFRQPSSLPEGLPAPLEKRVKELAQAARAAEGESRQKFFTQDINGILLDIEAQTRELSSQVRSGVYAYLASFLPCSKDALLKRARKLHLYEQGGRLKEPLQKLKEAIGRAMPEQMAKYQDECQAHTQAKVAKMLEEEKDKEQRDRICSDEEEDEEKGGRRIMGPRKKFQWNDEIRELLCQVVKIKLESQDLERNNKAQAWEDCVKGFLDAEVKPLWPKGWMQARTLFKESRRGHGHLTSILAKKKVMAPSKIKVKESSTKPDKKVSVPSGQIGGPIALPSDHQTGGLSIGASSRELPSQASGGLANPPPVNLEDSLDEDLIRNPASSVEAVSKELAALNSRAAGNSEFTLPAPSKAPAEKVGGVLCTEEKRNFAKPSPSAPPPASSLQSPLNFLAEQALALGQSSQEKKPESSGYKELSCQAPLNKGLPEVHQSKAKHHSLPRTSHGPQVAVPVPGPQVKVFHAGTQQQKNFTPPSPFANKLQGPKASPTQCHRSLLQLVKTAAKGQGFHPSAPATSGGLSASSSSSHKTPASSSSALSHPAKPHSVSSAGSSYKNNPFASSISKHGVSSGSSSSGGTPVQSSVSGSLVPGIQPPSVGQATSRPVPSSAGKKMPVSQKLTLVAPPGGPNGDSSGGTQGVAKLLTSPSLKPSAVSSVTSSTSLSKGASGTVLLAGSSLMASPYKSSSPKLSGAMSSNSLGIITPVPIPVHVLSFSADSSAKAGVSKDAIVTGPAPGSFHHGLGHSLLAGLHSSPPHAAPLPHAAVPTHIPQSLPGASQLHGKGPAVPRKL
UniProt Q96EB6: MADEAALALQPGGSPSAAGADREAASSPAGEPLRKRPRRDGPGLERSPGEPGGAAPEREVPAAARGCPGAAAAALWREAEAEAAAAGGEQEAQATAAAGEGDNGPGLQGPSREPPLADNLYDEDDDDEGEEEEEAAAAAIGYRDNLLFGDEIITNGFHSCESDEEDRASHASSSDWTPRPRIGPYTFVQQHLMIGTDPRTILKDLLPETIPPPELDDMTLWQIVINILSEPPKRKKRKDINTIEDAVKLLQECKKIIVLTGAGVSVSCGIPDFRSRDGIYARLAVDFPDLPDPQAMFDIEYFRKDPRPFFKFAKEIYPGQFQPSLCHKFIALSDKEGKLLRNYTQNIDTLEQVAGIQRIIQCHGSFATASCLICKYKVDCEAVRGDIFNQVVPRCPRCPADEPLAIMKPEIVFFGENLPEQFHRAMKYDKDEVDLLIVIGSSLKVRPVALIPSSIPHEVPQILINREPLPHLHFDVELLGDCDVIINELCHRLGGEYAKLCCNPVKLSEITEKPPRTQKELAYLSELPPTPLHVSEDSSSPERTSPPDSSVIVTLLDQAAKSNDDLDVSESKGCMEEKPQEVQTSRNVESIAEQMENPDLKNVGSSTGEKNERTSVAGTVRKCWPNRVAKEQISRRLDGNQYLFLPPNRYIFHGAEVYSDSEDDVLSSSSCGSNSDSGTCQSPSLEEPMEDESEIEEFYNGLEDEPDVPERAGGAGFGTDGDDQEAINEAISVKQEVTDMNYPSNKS
UniProt Q09472: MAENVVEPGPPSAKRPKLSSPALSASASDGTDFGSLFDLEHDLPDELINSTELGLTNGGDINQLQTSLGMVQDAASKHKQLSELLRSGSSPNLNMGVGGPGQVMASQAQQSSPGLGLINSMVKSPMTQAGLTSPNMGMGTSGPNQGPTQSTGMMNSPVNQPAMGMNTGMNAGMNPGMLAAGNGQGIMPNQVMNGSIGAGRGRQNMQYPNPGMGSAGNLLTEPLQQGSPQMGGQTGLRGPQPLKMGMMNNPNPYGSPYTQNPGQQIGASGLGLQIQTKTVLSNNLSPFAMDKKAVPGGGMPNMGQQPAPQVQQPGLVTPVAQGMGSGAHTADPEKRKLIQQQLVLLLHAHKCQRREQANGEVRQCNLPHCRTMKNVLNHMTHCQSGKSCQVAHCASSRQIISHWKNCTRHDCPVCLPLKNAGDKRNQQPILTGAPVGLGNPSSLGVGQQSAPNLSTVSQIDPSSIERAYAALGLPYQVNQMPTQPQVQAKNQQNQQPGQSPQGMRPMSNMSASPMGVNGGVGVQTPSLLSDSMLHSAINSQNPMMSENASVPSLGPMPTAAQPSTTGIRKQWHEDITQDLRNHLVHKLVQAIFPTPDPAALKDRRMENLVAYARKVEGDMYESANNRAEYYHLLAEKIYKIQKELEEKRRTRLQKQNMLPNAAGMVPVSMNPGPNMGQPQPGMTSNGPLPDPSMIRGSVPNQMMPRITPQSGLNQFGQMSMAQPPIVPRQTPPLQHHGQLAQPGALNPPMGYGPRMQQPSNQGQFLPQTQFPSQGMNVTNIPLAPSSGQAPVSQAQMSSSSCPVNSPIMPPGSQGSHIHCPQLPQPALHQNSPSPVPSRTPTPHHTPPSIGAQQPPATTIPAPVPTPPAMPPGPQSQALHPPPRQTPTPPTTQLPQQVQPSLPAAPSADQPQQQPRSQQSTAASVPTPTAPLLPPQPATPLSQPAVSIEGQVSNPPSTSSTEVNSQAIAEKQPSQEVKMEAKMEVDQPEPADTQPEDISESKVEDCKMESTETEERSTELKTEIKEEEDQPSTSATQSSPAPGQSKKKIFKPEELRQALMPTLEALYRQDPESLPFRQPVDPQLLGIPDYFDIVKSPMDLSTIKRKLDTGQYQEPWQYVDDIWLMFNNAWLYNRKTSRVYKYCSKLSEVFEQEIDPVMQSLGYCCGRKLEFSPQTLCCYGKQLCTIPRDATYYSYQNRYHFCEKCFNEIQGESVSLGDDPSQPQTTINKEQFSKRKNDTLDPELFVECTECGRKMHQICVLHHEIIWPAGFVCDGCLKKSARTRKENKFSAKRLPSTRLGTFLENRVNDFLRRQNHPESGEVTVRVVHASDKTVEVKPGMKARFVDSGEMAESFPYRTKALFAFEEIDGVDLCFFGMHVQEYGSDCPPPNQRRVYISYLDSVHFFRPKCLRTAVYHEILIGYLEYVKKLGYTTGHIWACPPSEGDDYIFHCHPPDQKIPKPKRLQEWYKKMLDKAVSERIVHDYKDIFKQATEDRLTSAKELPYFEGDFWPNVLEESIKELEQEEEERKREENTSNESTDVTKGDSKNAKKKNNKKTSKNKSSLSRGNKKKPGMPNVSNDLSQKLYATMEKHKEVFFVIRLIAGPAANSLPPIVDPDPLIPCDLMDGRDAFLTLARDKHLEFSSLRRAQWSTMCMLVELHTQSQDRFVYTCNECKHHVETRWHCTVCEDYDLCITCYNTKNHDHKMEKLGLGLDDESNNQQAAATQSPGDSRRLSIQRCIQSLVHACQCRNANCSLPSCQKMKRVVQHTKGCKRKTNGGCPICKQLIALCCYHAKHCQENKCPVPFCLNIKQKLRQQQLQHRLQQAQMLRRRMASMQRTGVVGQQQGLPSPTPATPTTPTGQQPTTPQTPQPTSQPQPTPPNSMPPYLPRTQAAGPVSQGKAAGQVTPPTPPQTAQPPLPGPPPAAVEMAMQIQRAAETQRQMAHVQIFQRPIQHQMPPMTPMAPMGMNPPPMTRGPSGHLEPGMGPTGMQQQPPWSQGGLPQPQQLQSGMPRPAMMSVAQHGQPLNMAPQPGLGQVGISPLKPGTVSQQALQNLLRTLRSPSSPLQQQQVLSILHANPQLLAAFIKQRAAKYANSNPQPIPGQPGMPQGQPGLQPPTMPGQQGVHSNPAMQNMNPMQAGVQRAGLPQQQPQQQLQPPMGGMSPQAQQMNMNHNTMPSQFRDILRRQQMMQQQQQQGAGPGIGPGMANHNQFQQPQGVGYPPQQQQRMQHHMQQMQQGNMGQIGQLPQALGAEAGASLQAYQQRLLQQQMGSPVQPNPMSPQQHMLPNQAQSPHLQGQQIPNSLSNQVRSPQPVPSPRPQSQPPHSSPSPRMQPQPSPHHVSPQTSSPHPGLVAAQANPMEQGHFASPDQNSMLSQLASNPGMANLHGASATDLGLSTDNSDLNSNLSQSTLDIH

How the values were obtained:
Assay in all cases: co-IP
Myc-HIRA K600R (human) = Myc-HIRA K600R (human) (UniProt P54198)
Myc-HIRA K600Q (human) = Myc-HIRA K600Q (human) (UniProt P54198)
Myc-HIRA WT (human) = Myc-HIRA WT (human) (UniProt P54198)
Flag-UBN1 = Flag-UBN1 (UniProt Q9NPG3)

Substance	binding (Myc-HIRA WT (human))	binding (Flag-UBN1)	also measured
Flag-UBN1 (from UniProt Q9NPG3 1-1134)			binding (Myc-HIRA K600R (human)): binds; binding (Myc-HIRA K600Q (human)): binds
Flag-SIRT1 (from UniProt Q96EB6) (enzyme)	binds		
Myc-HIRA K600Q (from UniProt P54198 1-1017)		binds	
Myc-HIRA K600R (from UniProt P54198 1-1017)		binds	
HA-P300 (from UniProt Q09472 1-2414) (enzyme)	binds		
